Test results published in patent US20060051526A1, “Process for producing cellulose acylate film” (Fuji Photo Film Co., Ltd., priority 2002, published 2006).

How the values were obtained:
[1] = Weeping (exudation of retardation control agent on the surface) of the cast cellulose acetate film; design: key: Bad: Weeping; Fair: Hardly weeping; Good: No weeping; details: Table 10; dope Table 6, dichloromethane/methanol 87/13, 74/26 during drying
Experimental: (§1) The dope thus obtained was cast on a film formation band and dried at 80° C. for 7 minutes. The amount of residual solvent after drying was 35 wt % regardless of the type of retardation control agent. The cellulose acetate film was peeled off from the band, dried at 100° C. for 10 minutes and dried at 140° C. for 20 minutes to give a cellulose acetate film. The effective wind speed of drying air was 5 m/sec through out the drying process until peeling off.
as §1, with “band, and” for “band,”
(§2) The dopes thus obtained were cast on a film formation band and dried at 80° C. for 7 minutes. The amount of residual solvent after drying was 35 wt % regardless of the type of retardation control agent. The cellulose acetate films were peeled off from the band, dried at 100° C. for 10 minutes, and dried at 140° C. for 20 minutes to give cellulose acetate films.

[2] = as above; design: key: Bad: Weeping; Good: No weeping
Experimental: as §1
as §1, with “band, and” for “band,”
as §2

[3] = as above; details: for Weeping (in words): dope with initial solvent composition 92/8
Experimental: as §1
as §1, with “band, and” for “band,”
as §2

[4] = Table 10, dope Table 8, dichloromethane/methanol 92/8, 91/9 during drying
[5] = Table 15, dope Table 12, 87/13, drying blow rate 5 m/min
[6] = Table 15, dope Table 13, 92/8, drying blow rate 5 m/min
[7] = Table 15, dope Table 13, 92/8, drying blow rate 7 m/min
[8] = Table 15, dope Table 14, 74/26, drying blow rate 5 m/min
[9] = film from dope of Table 6, initial CH2Cl2/CH3OH 87/13, 74/26 during drying
[10] = film from dope of Table 8, initial CH2Cl2/CH3OH 92/8, 91/9 during drying

Structure (SMILES) | Weeping [1] | Weeping [2, 4] | Weeping [2, 5] | Weeping [2, 6] | Weeping [2, 7] | Weeping [2, 8] | Weeping [2, 9] | Weeping [2, 10] | Weeping on the film surface (in words) ([3]; dope with initial composition ratio 87/13) | Weeping (in words) [3] | Weeping ([2]; Table 10, dope Table 6, dichloromethane/methanol 87/13, 74/26 during drying)
Cc1cccc(Nc2nc(Nc3cccc(C)c3)nc(Nc3cccc(C)c3)n2)c1 [Example Compound I-(51)] | Fair | Good | Good | Good | Good | Bad | Bad | Good | there was weeping on the film surface | did not weep | –
COc1ccc(Nc2nc(Nc3cccc(C)c3)nc(Nc3cccc(C)c3)n2)cc1 [Example Compound I-(2)] | – | Good | Good | Good | Good | Bad | Good | Good | – | did not weep | Good
